Measured data: PubChem BioAssay AID1159584 (Peter MacCallum Cancer Centre, 2016)

Test: 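Knock-downs that harm CDH1-null cells more than parental MCF10A cells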 (primary screen)
Cell system: human MCF10A breast epithelial cells, parental and CDH1-null
Reagent: siRNA against human genes
Measured: 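ATP luminescence (CellTiter-Glo) viability per line relative to mean mock wells over all plates, and the ratio of CDH1-null to parental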
Reading the numbers: CDH1-null / parental viability ratio: higher = CDH1-null cells survive relatively better than parental; CDH1-null viability vs mock: higher = more viable CDH1-null cells; parental viability vs mock: higher = more viable parental cells
The whole screen tested about 18,000 reagents; shown is a random part of them. Not stated in the record: the amount of reagent, the time to read-out.

| target | CDH1-null / parental viability ratio | CDH1-null viability vs mock (fraction of mock) | parental viability vs mock (fraction of mock) |
| --- | --- | --- | --- |
| H1-5 (H1.5 linker histone, cluster member) | 1.27 | 0.33 | 0.26 |
| C22orf31 (chromosome 22 open reading frame 31) | 1.06 | 0.93 | 0.88 |
| PPAN (peter pan homolog) | 0.93 | 0.78 | 0.84 |
| COA3 (cytochrome c oxidase assembly factor 3) | 0.77 | 0.51 | 0.66 |
| EDEM2 (ER degradation enhancing alpha-mannosidase like protein 2) | 0.84 | 0.76 | 0.9 |
| ADAM22 (ADAM metallopeptidase domain 22) | 1.11 | 0.89 | 0.8 |
| NKAPL (NFKB activating protein like) | 1.28 | 1.05 | 0.82 |
| IKZF4 (IKAROS family zinc finger 4) | 1.14 | 0.58 | 0.51 |
| HSD17B8 (hydroxysteroid 17-beta dehydrogenase 8) | 0.93 | 0.8 | 0.86 |
| TKT (transketolase) | 0.8 | 0.7 | 0.88 |
| CXCL10 (C-X-C motif chemokine ligand 10) | 1.18 | 1.04 | 0.88 |
| TSSK4 (testis specific serine kinase 4) | 0.98 | 0.94 | 0.96 |
| BPHL (biphenyl hydrolase like) | 0.78 | 0.58 | 0.74 |
| FAT1 (FAT atypical cadherin 1) | 0.88 | 0.66 | 0.75 |
| SPPL2B (signal peptide peptidase like 2B) | 1.32 | 0.82 | 0.62 |
| CDH1 (cadherin 1) | 1.11 | 0.89 | 0.8 |
| DDX52 (DExD-box helicase 52) | 0.96 | 0.9 | 0.94 |
| UPK2 (uroplakin 2) | 0.69 | 0.29 | 0.42 |
| OFD1 (OFD1 centriole and centriolar satellite protein) | 1.02 | 1.1 | 1.08 |
| AFAP1L2 (actin filament associated protein 1 like 2) | 1.09 | 0.76 | 0.7 |
| KRTAP8-1 (keratin associated protein 8-1) | 0.92 | 0.74 | 0.8 |
| FST (follistatin) | 1.07 | 1.02 | 0.95 |
| GYS1 (glycogen synthase 1) | 0.9 | 0.8 | 0.89 |
| LTBP2 (latent transforming growth factor beta binding protein 2) | 1.23 | 0.48 | 0.39 |
| LHX2 (LIM homeobox 2) | 0.7 | 0.6 | 0.86 |
| FAM24B (family with sequence similarity 24 member B) | 1.01 | 1.01 | 1 |
| NFKBIZ (NFKB inhibitor zeta) | 1.05 | 1.02 | 0.97 |
| SH2D2A (SH2 domain containing 2A) | 1.17 | 0.98 | 0.84 |
| NAP1L3 (nucleosome assembly protein 1 like 3) | 0.98 | 0.8 | 0.82 |
| CNTN2 (contactin 2) | 1.01 | 0.74 | 0.73 |
| ATP7A (ATPase copper transporting alpha) | 0.94 | 0.66 | 0.7 |
| KBTBD2 (kelch repeat and BTB domain containing 2) | 0.71 | 0.62 | 0.87 |
| SLC41A3 | 1.44 | 0.92 | 0.64 |
| AP2A2 (adaptor related protein complex 2 subunit alpha 2) | 0.81 | 0.26 | 0.32 |
| EN2 (engrailed homeobox 2) | 0.92 | 0.74 | 0.8 |

Continued; the last 5 above are carried over.
| target | CDH1-null / parental viability ratio | CDH1-null viability vs mock (fraction of mock) | parental viability vs mock (fraction of mock) |
| --- | --- | --- | --- |
| ATP7A (ATPase copper transporting alpha) | 0.94 | 0.66 | 0.7 |
| KBTBD2 (kelch repeat and BTB domain containing 2) | 0.71 | 0.62 | 0.87 |
| SLC41A3 | 1.44 | 0.92 | 0.64 |
| AP2A2 (adaptor related protein complex 2 subunit alpha 2) | 0.81 | 0.26 | 0.32 |
| EN2 (engrailed homeobox 2) | 0.92 | 0.74 | 0.8 |
| UCKL1 (uridine-cytidine kinase 1 like 1) | 0.99 | 1.06 | 1.07 |
| WFIKKN1 | 0.89 | 0.62 | 0.7 |
| UNC119B (unc-119 lipid binding chaperone B) | 0.87 | 0.88 | 1.01 |
| GALP (galanin like peptide) | 1.19 | 0.95 | 0.8 |
| INTS9 (integrator complex subunit 9) | 0.91 | 0.82 | 0.9 |
| USP29 (ubiquitin specific peptidase 29) | 0.95 | 0.79 | 0.83 |
| EPB41L3 (erythrocyte membrane protein band 4.1 like 3) | 0.88 | 0.68 | 0.77 |
| SLC38A5 | 0.67 | 0.43 | 0.64 |
| HLA-L (major histocompatibility complex, class I, L (pseudogene)) | 1.19 | 1.05 | 0.88 |
| SYNJ2BP (synaptojanin 2 binding protein) | 1.32 | 0.5 | 0.38 |
| CHODL (chondrolectin) | 1.19 | 0.57 | 0.48 |
| HTR4 (5-hydroxytryptamine receptor 4) | 1.24 | 0.87 | 0.7 |
| SMO (smoothened, frizzled class receptor) | 1.33 | 1 | 0.75 |
| MRGPRX4 (MAS related GPR family member X4) | 1.4 | 1.02 | 0.73 |
| SAMD4B (sterile alpha motif domain containing 4B) | 0.94 | 0.32 | 0.34 |
| ISG15 (ISG15 ubiquitin like modifier) | 0.78 | 0.67 | 0.86 |
| APRG1 (APRG1 tumor suppressor candidate) | 1.03 | 0.62 | 0.6 |
| QSOX2 (quiescin sulfhydryl oxidase 2) | 1.13 | 1.04 | 0.92 |
| TNFSF12 (TNF superfamily member 12) | 1.17 | 0.77 | 0.66 |
| SIX1 (SIX homeobox 1) | 0.99 | 1 | 1.01 |
| METRNL (meteorin like, glial cell differentiation regulator) | 0.73 | 0.46 | 0.63 |
| MZF1 (myeloid zinc finger 1) | 1.04 | 0.86 | 0.83 |
| FSD1L (fibronectin type III and SPRY domain containing 1 like) | 0.88 | 0.44 | 0.5 |
| FBXO42 (F-box protein 42) | 0.98 | 0.65 | 0.66 |
| PNPO (pyridoxamine 5'-phosphate oxidase) | 1.08 | 0.92 | 0.85 |
| FGF4 (fibroblast growth factor 4) | 0.71 | 0.6 | 0.84 |
| MELK (maternal embryonic leucine zipper kinase) | 0.93 | 0.86 | 0.92 |
| SETD4 (SET domain containing 4) | 0.91 | 0.49 | 0.54 |
| SPIDR (scaffold protein involved in DNA repair) | 1.25 | 0.64 | 0.51 |
| DNAI3 (dynein axonemal intermediate chain 3) | 0.93 | 0.92 | 0.99 |
| FMO2 (flavin containing dimethylaniline monoxygenase 2) | 0.98 | 0.82 | 0.84 |
| DENND4A (DENN domain containing 4A) | 1.23 | 0.91 | 0.74 |
| DAXX (death domain associated protein) | 0.92 | 0.92 | 1 |
| PTBP2 (polypyrimidine tract binding protein 2) | 1 | 0.74 | 0.74 |
| CDK14 (cyclin dependent kinase 14) | 0.97 | 0.89 | 0.92 |
| TCIM (transcriptional and immune response regulator) | 1 | 0.38 | 0.38 |
| ZBED10P (zinc finger BED-type containing 10, pseudogene) | 0.71 | 0.64 | 0.9 |
| SLC22A14 | 0.96 | 0.72 | 0.75 |
| ATP6V1H (ATPase H+ transporting V1 subunit H) | 1.02 | 0.82 | 0.8 |
| CCDC178 (coiled-coil domain containing 178) | 1.23 | 0.7 | 0.57 |
| GTF3C4 (general transcription factor IIIC subunit 4) | 0.95 | 0.84 | 0.88 |
| HEY1 | 0.99 | 0.78 | 0.79 |
| TGM5 (transglutaminase 5) | 0.91 | 0.89 | 0.98 |
| ATOSB (atos homolog B) | 1.28 | 0.74 | 0.58 |
| FGF22 (fibroblast growth factor 22) | 1.27 | 0.38 | 0.3 |
| MYO1B (myosin IB) | 0.75 | 0.54 | 0.72 |
| RHBDF2 (rhomboid 5 homolog 2) | 1.11 | 0.84 | 0.76 |
| PRKAG2 (protein kinase AMP-activated non-catalytic subunit gamma 2) | 0.97 | 0.89 | 0.92 |
| DNAJB4 (DnaJ heat shock protein family (Hsp40) member B4) | 1.15 | 0.85 | 0.74 |
| ZNF320 (zinc finger protein 320) | 1.13 | 0.86 | 0.76 |
| TRIM56 (tripartite motif containing 56) | 0.73 | 0.67 | 0.92 |
| DMGDH (dimethylglycine dehydrogenase) | 1.16 | 0.94 | 0.81 |
